# In US8815811B2 (Eli Lilly and Company, priority 2010, dated 2014):
# Where no end group is shown, it is not given here. [ ]: non-standard residue; d: D form. Aib = CC(C)(N)C(=O)O
# Experiments:
# peptide synthesis = conditions: conjugation step
# [1] = general procedure: Fmoc solid-phase peptide synthesis; Fmoc-Rink amide polystyrene resin (Rapp Polymere), approximately 0.7 mmol/g; DIC/HOBt; PyBOP/DIEA for 1-Nal at position 22 and Ile at position 12; conditions: conjugation step, based on the amount of starting peptide
Substance,conjugation yield (peptide synthesis),conjugation yield [1]
Tyr-Aib-Glu-Gly-Thr-Phe-Thr-Ser-Asp-Tyr-Ser-Ile-Aib-Leu-Asp-Lys-Ile-Ala-Gln-Arg-Ala-Nal-Val-Gln-Trp-Leu-Ile-Ala-Aib-Lys-Gly-Lys-Lys-Gln-Glu-Trp-Lys-His-Gln-Ile-Thr-Gln-Cys(PEG20K)-Cys(PEG20K),typically in the range of 70%,
Y[Aib]EGTFTSDYSI[Aib]LDKIAQRAFVQWLIA[Aib]KGKKQEWKHQITQ,,typically in the range of 70%
